The values are deposited in ChEMBL (CHEMBL3988442, “University of Dundee, Small-Polar-MMV Screening Library” (2021)).

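Growth of Mycobacterium tuberculosis over 3 days (7H9 medium with glucose and tyloxapol); the read-out is not stated. Compounds at 500 µM. Higher reads as more growth inhibition (inferred: compounds with an IC50 in retests scored well above the rest). Size under these conditions: about 18,000 compounds, about 1,400 of them at 50% or above in at least one test.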

Results are given as percent effect.
The record does not define 0% and 100%; most values in the screen are far below 50% and negative numbers occur (in some assays of this library far below -100).
Compounds were drawn at random from those tested, without regard to their results.

{"compound": "NS(=O)(=O)N1CCCC1C(=O)NC1CC1", "stereo": "centres undefined", "Percent Effect": -6.557}
{"compound": "Nc1nnc(SCc2coc(-c3ccccc3)n2)[nH]1", "Percent Effect": 65.71}
{"compound": "COCCN1CCC(c2ccn[nH]2)CC1", "Percent Effect": 8.387}
{"compound": "CCOC(=O)c1sc(N)c(C#N)c1CN1CCOCC1", "Percent Effect": 14.61}
{"compound": "CN(CCSc1nnc[nH]1)c1ccccc1", "Percent Effect": 32.92}
{"compound": "CCC(NC(=O)NCC(=O)N1CCCC1)c1nccs1", "stereo": "centres undefined", "Percent Effect": -10.37}
{"compound": "Cc1nnc(CN(C)C(CCO)c2ccccc2)o1", "stereo": "centres undefined", "Percent Effect": 10.03}
{"compound": "Cn1nc2c(c1CN)CCCC2", "Percent Effect": -4.323}
{"compound": "CC(N)C(=O)N1CCN(C)CC1", "stereo": "centres undefined", "Percent Effect": 3.256}
{"compound": "Cc1cccc(C)c1OC1CN(C(=O)CC(O)CN)C1", "stereo": "centres undefined", "Percent Effect": 41.12}
{"compound": "Cn1cccc1C(=O)NCCc1ccncc1", "Percent Effect": -8.866}
{"compound": "NC(=O)COCCNC(=O)c1csc(Br)c1", "Percent Effect": 9.291}
{"compound": "O=C(N1CCCCC1)N1CCCC(c2nnc[nH]2)C1", "stereo": "centres undefined", "Percent Effect": 21.39}
{"compound": "CCc1cc(C)c(C(=O)Nc2ccc(C(N)=O)nc2)o1", "Percent Effect": 78.26}
{"compound": "CCN(CCCOC)CC(=O)Nc1cccc(OC)c1", "Percent Effect": 19.31}
{"compound": "NCCC(=O)N1CCCC(CCc2ccc(F)cc2)C1", "stereo": "centres undefined", "Percent Effect": 71.72}
{"compound": "CN(C)S(=O)(=O)c1ccc(CN2CCC(C(N)=O)C2)o1", "stereo": "centres undefined", "Percent Effect": 7.427}
{"compound": "CC(C)(C)OC(=O)N1CCN(C(=O)CN)CC1", "Percent Effect": -0.9925}
{"compound": "CCNC(=O)Cc1n[nH]c(=O)c2ccccc12", "Percent Effect": -7.025}
{"compound": "N#Cc1c[nH]c(C(=O)NCCCNC2CCCCC2)c1", "Percent Effect": 6.497}
{"compound": "NC1CCc2nnc(Cc3ccccc3)n2C1", "stereo": "centres undefined", "Percent Effect": -6.302}
{"compound": "Cc1ccc(S(=O)(=O)NCCS(C)(=O)=O)cc1C", "Percent Effect": 29.34}
{"compound": "CC(=O)Nc1ccccc1CN", "Percent Effect": 10.86}
{"compound": "CNC1CCN(S(=O)(=O)c2cccc(C(N)=O)c2)C1", "stereo": "centres undefined", "Percent Effect": 5.551}
{"compound": "COCC(C)C(=O)Nc1ccc2[nH]nnc2c1", "stereo": "centres undefined", "Percent Effect": -1.297}
{"compound": "CS(=O)(=O)N1CCC(c2nc(-c3cccs3)no2)CC1", "Percent Effect": 6.118}
{"compound": "Cn1c(CN)nc2cccc(Cl)c21", "Percent Effect": 30.37}
{"compound": "CN(CCO)c1ccc(N)nc1", "Percent Effect": -99.92}
{"compound": "CC1COC2(CCN(c3ccncc3Cl)CC2)O1", "stereo": "centres undefined", "Percent Effect": -6.658}
{"compound": "Cc1cccc(C(=O)Nc2ccc(Cl)c(C(N)=O)c2)n1", "Percent Effect": -13.48}
{"compound": "CN1CCC(NC(=O)C2CCC2)CC1", "Percent Effect": 5.434}
{"compound": "CN1Cc2cccn2CC1CNC(=O)c1cccn1C", "stereo": "centres undefined", "Percent Effect": 49.58}
{"compound": "CCS(=O)(=O)NCc1ccccc1F", "Percent Effect": 17.3}
{"compound": "NCCc1ccnc2ccccc12", "Percent Effect": 17.11}
{"compound": "N#Cc1nc(NCCSCCCO)ccc1Cl", "Percent Effect": 75.58}
{"compound": "Cc1c[nH]c(C(=O)NCCNc2ccncc2C)n1", "Percent Effect": 10.13}
{"compound": "Cc1ccc(CN2CCCC(O)(CO)CC2)cc1C", "stereo": "centres undefined", "Percent Effect": 19.78}
{"compound": "CC(=O)COC(=O)CNC(=O)c1ccc(Br)cc1", "Percent Effect": 17}
{"compound": "O=C(CC1(O)CCCCC1)NCC(O)c1ccsc1", "stereo": "centres undefined", "Percent Effect": 27.69}
{"compound": "CS(=O)(=O)NCCc1ccc(C(=O)NCC2CC2)cc1", "Percent Effect": 15.48}
{"compound": "CC(N)Cc1ccncc1", "stereo": "centres undefined", "Percent Effect": 5.8}
{"compound": "COC(=O)c1cccc(NC(=O)c2n[nH]cc2I)c1", "Percent Effect": 19.46}
{"compound": "COc1cccc(-c2ncc(CN)s2)c1", "Percent Effect": 65.16}
{"compound": "Cc1cccc2[nH]cc(CCN)c12", "Percent Effect": 84.83}
{"compound": "CCc1cn[nH]c1C1CCCNC1", "stereo": "centres undefined", "Percent Effect": 12.51}
{"compound": "O=C(c1cncn1-c1ccccc1)N1CCSCC1", "Percent Effect": -11.9}
{"compound": "CC[C@@]1(O)CCN(C(=O)CCc2cc(Cl)no2)C[C@H]1O", "Percent Effect": 41.53}
{"compound": "CC(NC(=O)CCNS(C)(=O)=O)c1ccc(F)c(F)c1", "stereo": "centres undefined", "Percent Effect": 9.726}
{"compound": "Cc1noc(CNC(=O)c2cccnc2N(C)C)n1", "Percent Effect": 6.297}

Some entries from above, unchanged:

Compound	Percent Effect
CC(NC(=O)CCNS(C)(=O)=O)c1ccc(F)c(F)c1 (centres undefined)	9.726
Cc1noc(CNC(=O)c2cccnc2N(C)C)n1	6.297
CN(CCSc1nnc[nH]1)c1ccccc1	32.92
CCN(CCCOC)CC(=O)Nc1cccc(OC)c1	19.31